Measurements: PubChem BioAssay AID758 (NMMLSC, 2007)
Screen size: about 190,000 compounds; about 110 (0.058%) were called active. The shares of active, inactive and inconclusive entries below differ from those in the screen.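 The calls were made as follows: active = fluorescent GTP binding to Rab7 beads changed by at least 20 points from the 100% baseline, either direction, mostly lower; inconclusive = compound itself probably fluorescent, or too few beads counted; inactive = the rest.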

The molecules below were run on Rab7 GTPase wild type (dog), Bodipy-FL-GTP binding (assay: modulators of GTP binding to Rab7, primary screen, biochemical, wildtype, multiplex bead flow cytometry (AID 758;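 also: median green fluorescence of bound Bodipy-FL-GTP per Rab7 bead population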)). Settings: GST-Rab7 beads, fluorescent GTP binding, at 10 µM, actives lie on both sides, untreated = 100%, excess cold GTP = 0%.

| Compound | GTP binding activity (percent of control) |
| --- | --- |
| CCC(C)(C)n1nnnc1C(c1cc2cccc(C)c2[nH]c1=O)N1CCCC1 (centres undefined) | inconclusive: 106% |
| Cc1ccc(N2C(=O)c3cccc4c(N5CCN(C)CC5)ccc(c34)C2=O)c2cccnc12 | inconclusive: 105% |
| CS(=O)(=O)N1CCC(C(=O)NCc2ccc(F)cc2)CC1 | inactive: 106% |
| Cc1ccc(C(=O)NNC(=O)CSc2nnc3c(n2)[nH]c2ccc(C)cc23)cc1 | inconclusive: 87% |
| CC(C)=C1C2CCC1C1C(=O)N(c3nc(-c4ccccc4)c(C)s3)C(=O)C21 (centres undefined) | inactive: 97% |
| O=C(C[n+]1ccccc1)Nc1cc(C(F)(F)F)ccc1Cl | inconclusive: 106% |
| CCCC(=O)Nc1ccc2c(c1)nc(CCNC(=O)c1ccccc1)n2C | inconclusive: 101% |
| Cc1ccc(NC(=O)CS(=O)(=O)c2c[nH]c3ccccc23)c(C)c1 | inconclusive: 753% |
| COc1cccc(-c2n[nH]c3c2CCC3)c1 | inconclusive: 91% |
| Cc1ccc(CS(=O)(=O)c2ccccc2-c2nnc(-c3ccc(Cl)cc3)o2)cc1 | active: 77% |
| Cc1cc(C(=O)NCC(C)C)c2ccccc2n1 | inconclusive: 102% |
| N#Cc1c(N)nc2c(c1N)CC(CCl)O2 (centres undefined) | inconclusive: 91% |
| CN(Cc1cnn(-c2ccc(F)cc2)c1)Cc1nc(Cc2ccccc2)no1 | inconclusive: 97% |
| CCOC(=O)C1CCCN(Cc2cc(Br)c(OC)cc2OC)C1 (centres undefined) | inactive: 94% |
| CC1CCCCC1NC(=O)COC(=O)c1ccccn1 (centres undefined) | inconclusive: 102% |
| N#CC(C#N)=Cc1ccc(OCC(=O)N2CCOCC2)cc1 | inactive: 106% |
| Cc1ccccc1-n1nc(C)c2cc(C(=O)NCc3cccnc3)sc21 | inconclusive: 103% |
| Cc1ccc(-n2c(SCC(=O)N3CC(=O)Nc4ccccc43)nc3ccccc3c2=O)cc1 | inactive: 100% |
| O=c1c2cccnc2n(-c2ccccc2)n1Cc1ccc(Cl)cc1 | inconclusive: 93% |
| COc1ccc(/C=C(\NC(=O)c2ccccc2)C(=O)OC[C@@H]2CCC[N+]3(C)CCCCC23)cc1OC (some centres undefined) | inactive: 100% |

Pulled one by one from above (2):

| Compound | GTP binding activity (percent of control) |
| --- | --- |
| Cc1ccccc1-n1nc(C)c2cc(C(=O)NCc3cccnc3)sc21 | inconclusive: 103% |
| Cc1ccc(CS(=O)(=O)c2ccccc2-c2nnc(-c3ccc(Cl)cc3)o2)cc1 | active: 77% |

Later entries:

| Compound | GTP binding activity (percent of control) |
| --- | --- |
| c1ccc(-c2nnc3n2N=C(c2ccc4c(c2)OCO4)CS3)nc1 | inconclusive: 87% |
| COc1ccc(CCc2nnc(CCC(=O)NCc3ccc4ncccc4c3)o2)cc1 | inactive: 100% |
| CCOc1cc(C(=O)NCc2ccc(C)cc2)ccc1OCC(=O)N1CCOCC1 | inconclusive: 95% |
| O=C(NCc1ccc2c(c1)OCO2)c1ccc2c(c1)C(=O)N(CC1CCCO1)C2=O (centres undefined) | inconclusive: 94% |
| O=C(/C=C\c1cccs1)N1CCN(Cc2ccc3c(c2)OCO3)CC1 | inactive: 103% |
| Cc1cc(C(=O)CSc2nnc(-c3ccccc3)o2)c(C)n1CC1COc2ccccc2O1 (centres undefined) | inconclusive: 92% |
| C/C(=N\NC(=O)c1c[nH]c2ccccc12)c1ccccn1 | inconclusive: 87% |
| COC(=O)c1ccc(N=NNc2cccc(Br)c2)cc1 | inactive: 98% |
| Cc1nc2ccc3nc(NC(=O)c4ccc5c(c4)OCCO5)sc3c2s1 | inconclusive: 108% |
| C#CCn1cc(/C=N/NC(=O)COc2cccc3cccnc23)c2ccccc21 | inconclusive: 100% |
| CC1(C)OC(=O)C(=Cc2ccc(-c3ccc(S(N)(=O)=O)cc3)o2)C(=O)O1 | inactive: 98% |
| O=C(NNC(=O)C1CCCN(c2ncccn2)C1)c1ccncc1 (centres undefined) | inactive: 97% |
| CS(=O)(=O)N(CC(=O)N1CCC(C(N)=O)CC1)c1cc(C(F)(F)F)ccc1Cl | inactive: 98% |
| Cc1ccc(Sc2ncnc3onc(C)c23)c(C)c1 | inconclusive: 97% |
| OC(c1cccc(OCc2ccccc2)c1)c1nnc(-c2ccccc2)o1 (centres undefined) | inactive: 98% |
| CCOC(=O)N1CCC(N2Cc3cccc(C(=O)Nc4ccc(CC)cc4)c3C2=O)CC1 | inconclusive: 91% |
| Cc1[nH]c2ccccc2c1CCNC(=O)c1c(N)no[n+]1[O-] | inconclusive: 91% |
| CCCCOC(=O)Nc1nc2ccc(OC)cc2s1 | inconclusive: 106% |
| COc1ccc(-c2[nH]nc3oc(=O)cc(C)c23)cc1 | inconclusive: 99% |
| S=C(NCc1cccs1)Nc1cccc(Cl)c1 | inconclusive: 104% |

| Compound | GTP binding activity (percent of control) |
| --- | --- |
| COc1ccc(C(=O)N/C(=C\c2ccco2)C(=O)NCCCn2ccnc2)cc1 | inconclusive: 103% |
| CCOC(=O)Cn1cc(C(=O)C2CC2)c2ccccc21 | inconclusive: 89% |
| COc1ccc(CSC(=N)N)cc1[N+](=O)[O-] | inconclusive: 102% |
| Cc1ccc(O)c(C(CC(=O)NC2CCCCC2)c2ccccc2)c1 (centres undefined) | inactive: 103% |
| CCOC(=O)c1c(NC(C)=O)sc2c(O)c(CN3CCN(CC)CC3)ccc12 | inactive: 102% |
| Cc1ccc([N+](=O)[O-])cc1NC(=O)c1ccc(C(C)(C)C)cc1 | inconclusive: 108% |
| NC(=O)c1ccccc1NC(=O)/C=C/c1cccc(Cl)c1 | inconclusive: 107% |
| COc1ccc(-c2nc(CSCC(=O)NCc3ccc4c(c3)OCO4)c(C)o2)cc1 | inconclusive: 104% |
| CC(SC(=S)N(C)Cc1cccs1)C(=O)O (centres undefined) | active: 136% [activator] |
| O=C(c1cccs1)N1CCN(S(=O)(=O)c2ccc(F)cc2)CC1 | inconclusive: 91% |
| COc1cc(-c2cc(-c3ccc(O)cc3)nc(N)c2C#N)ccc1O | inconclusive: 77% |
| CCCCc1nc2ccccc2[nH]1 | inconclusive: 97% |
| O=C(N/N=C\C=C\c1ccco1)c1cc(-c2ccc3ccccc3c2)n[nH]1 | inconclusive: 96% |
| CCOc1cc(/C=N/NC(=O)c2cccs2)cc([N+](=O)[O-])c1O | inconclusive: 80% |
| O=C1N=C2N(CCN3CCCCC3)c3ccccc3N2/C1=C\c1ccc([N+](=O)[O-])o1 | inconclusive: 96% |
| COc1ccc(N(CC(=O)O)S(=O)(=O)c2ccc(C)cc2)cc1Cl | inconclusive: 95% |
| O=C(CCN1C(=O)c2ccccc2C1=O)OCn1nnc2ccccc2c1=O | inconclusive: 98% |
| COc1ccc(NC(=O)[C@H](COCc2ccccc2)NC(=O)OC(C)(C)C)cc1 | inconclusive: 101% |
| COc1ccccc1NS(=O)(=O)c1cc([N+](=O)[O-])ccc1N/N=C/c1sc(N2CCOCC2)nc1-c1ccccc1 | inconclusive: 126% |
